Measurements from doi:10.1101/2021.01.21.427569.
These are yes or no findings as the source states them, for the method shown. In cells and extracts the contact can be indirect. Some entries that bind do so weakly or less than the wild type. Where a sequence is shown, tags or fusion partners need not be part of it.

The chains behind the UniProt entries cited, without tags or fusion partners.
UniProt P20042: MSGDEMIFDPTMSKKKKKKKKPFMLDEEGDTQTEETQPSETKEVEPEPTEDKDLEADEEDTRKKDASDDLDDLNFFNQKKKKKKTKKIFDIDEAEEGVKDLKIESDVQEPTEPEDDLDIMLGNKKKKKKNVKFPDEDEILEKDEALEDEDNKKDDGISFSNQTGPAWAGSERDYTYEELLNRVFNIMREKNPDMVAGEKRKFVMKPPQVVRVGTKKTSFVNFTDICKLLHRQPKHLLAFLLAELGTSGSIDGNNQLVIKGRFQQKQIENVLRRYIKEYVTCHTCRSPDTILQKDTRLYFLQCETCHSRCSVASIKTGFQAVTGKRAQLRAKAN
UniProt Q14240: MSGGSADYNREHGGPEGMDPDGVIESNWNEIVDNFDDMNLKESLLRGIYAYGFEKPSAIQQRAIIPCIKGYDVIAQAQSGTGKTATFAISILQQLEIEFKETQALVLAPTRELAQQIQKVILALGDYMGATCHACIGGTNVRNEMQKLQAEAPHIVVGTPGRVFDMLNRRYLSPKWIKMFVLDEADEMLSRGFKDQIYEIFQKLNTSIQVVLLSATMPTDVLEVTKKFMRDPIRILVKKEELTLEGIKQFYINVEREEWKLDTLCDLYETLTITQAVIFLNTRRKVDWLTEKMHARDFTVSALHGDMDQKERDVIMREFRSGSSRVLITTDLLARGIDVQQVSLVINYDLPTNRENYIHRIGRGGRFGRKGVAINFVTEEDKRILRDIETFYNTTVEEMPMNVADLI

Columns and labels:
[1] = biological target: T1, V5-SBP-DAP5 ΔW2 (residues 1-722) (human) (UniProt P78344); assay: pull-down
T1 sequence: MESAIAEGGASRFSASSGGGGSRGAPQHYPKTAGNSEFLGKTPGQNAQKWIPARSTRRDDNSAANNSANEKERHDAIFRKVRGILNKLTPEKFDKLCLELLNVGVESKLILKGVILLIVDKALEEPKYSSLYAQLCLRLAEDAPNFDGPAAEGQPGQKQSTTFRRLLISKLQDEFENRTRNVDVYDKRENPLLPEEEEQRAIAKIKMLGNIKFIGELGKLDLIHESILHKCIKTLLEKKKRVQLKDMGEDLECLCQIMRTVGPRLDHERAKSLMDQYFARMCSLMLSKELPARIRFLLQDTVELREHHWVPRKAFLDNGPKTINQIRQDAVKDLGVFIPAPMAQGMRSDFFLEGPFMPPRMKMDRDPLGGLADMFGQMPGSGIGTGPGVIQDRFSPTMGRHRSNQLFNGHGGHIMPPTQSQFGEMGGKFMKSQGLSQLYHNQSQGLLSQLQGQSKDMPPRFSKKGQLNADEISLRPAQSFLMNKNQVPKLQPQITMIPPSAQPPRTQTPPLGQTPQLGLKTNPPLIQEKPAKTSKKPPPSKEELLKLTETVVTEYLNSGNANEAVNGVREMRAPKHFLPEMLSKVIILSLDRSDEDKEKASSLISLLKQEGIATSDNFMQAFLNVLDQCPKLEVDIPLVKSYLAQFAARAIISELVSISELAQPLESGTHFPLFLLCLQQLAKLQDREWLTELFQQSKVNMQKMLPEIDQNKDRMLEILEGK

[2] = biological target: T2, V5-SBP-DAP5 (Death-associated protein 5), full length (human) (UniProt P78344); assay: pull-down
T2 sequence: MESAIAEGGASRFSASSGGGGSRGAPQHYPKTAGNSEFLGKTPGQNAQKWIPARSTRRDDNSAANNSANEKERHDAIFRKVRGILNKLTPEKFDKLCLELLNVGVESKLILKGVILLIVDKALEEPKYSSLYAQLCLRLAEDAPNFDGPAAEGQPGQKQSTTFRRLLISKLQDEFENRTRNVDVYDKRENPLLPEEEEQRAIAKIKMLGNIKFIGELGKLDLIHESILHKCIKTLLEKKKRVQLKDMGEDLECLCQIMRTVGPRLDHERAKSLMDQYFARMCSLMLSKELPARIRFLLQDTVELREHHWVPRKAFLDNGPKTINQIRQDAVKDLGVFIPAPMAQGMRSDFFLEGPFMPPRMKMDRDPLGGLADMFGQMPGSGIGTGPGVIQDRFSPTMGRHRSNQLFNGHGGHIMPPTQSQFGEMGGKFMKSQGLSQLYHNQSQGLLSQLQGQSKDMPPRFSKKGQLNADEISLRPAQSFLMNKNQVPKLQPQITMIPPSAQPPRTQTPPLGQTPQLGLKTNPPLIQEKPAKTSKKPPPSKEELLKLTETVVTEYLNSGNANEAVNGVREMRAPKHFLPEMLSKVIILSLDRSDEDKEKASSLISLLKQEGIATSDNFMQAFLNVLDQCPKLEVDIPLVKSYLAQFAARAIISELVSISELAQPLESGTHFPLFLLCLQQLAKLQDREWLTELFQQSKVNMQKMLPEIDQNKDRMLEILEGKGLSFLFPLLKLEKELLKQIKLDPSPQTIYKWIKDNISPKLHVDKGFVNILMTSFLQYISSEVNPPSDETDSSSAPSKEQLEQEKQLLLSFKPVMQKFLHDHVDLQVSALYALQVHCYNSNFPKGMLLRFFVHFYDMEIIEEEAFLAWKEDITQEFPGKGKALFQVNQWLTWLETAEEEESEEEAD

binding [1]	Substance	binding [2]
no binding	GFP-eIF2β (from UniProt P20042 1-333)	binds
–	eIF4A2 (from UniProt Q14240 1-407)	binds
